Test results published in publication PMC3795061.
Where a chain is given by its changes, count along the chain named. These are yes or no findings as the source states them, for the method shown. Some results given as binding are weak or reduced against the parent protein; the word gives no strength. For some of these results: Sequences can lack the tags named with a protein.

Key:
Assay in all cases: far-Western, overlay or dot blot; 10 ug of each E. coli Rosetta extract on 12% SDS-PAGE, transferred to nitrocellulose, overlaid with 25 pmol/mL purified PPP1CC1 for 1 hr; bound PPP1CC1 detected with CBC3C (anti-PPP1CC), normalised to anti-His signal and compared with pET-TCTEX1D4; triplicates; only the binder purified
[1] = molecular target: T1, TCTEX1D4 HA mutant (human) (UniProt Q5JR98)
T1 sequence: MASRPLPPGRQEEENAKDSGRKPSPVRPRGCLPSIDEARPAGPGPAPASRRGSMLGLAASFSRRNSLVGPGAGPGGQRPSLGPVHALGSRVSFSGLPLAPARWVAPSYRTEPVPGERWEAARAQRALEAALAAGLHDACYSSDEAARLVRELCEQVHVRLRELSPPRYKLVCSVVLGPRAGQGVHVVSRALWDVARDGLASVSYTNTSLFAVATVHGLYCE

[2] = molecular target: T2, TCTEX1D4 HA+INL mutant (human) (UniProt Q5JR98)
T2 sequence: T1 sequence with V91I, S92N, F93L

[3] = molecular target: T3, TCTEX1D4 INL mutant (human) (UniProt Q5JR98)
T3 sequence: T1 sequence with H85P, A86P, V91I, S92N, F93L

[4] = molecular target: T4, wild type human TCTEX1D4 (pET-TCTEX1D4) (human) (UniProt Q5JR98)
T4 sequence: T1 sequence with H85P, A86P

- binding [1]: binds
- binding [2]: binds
- binding [3]: binds
- binding [4]: binds
Substance: PPP1C gamma 1 isoform (PPP1CC1) (from UniProt P36873-1 1-323) (enzyme)
